Source: PubChem BioAssay AID743454 (Peter MacCallum Cancer Centre, 2014)

Screen: 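Search for knock-downs that restore vorinostat killing in resistant colon cancer cells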 (primary screen)
System: human HCT116-VR colon cancer cells, selected for vorinostat resistance
Knock-down reagent: siRNA pool against human genes, 40 nM siRNA pool
Duration: vorinostat for 24 h, read-out about 72 h after transfection
Conditions: vorinostat at 2.5 µM final
Measurement: 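Cell viability by CellTiter-Fluor and caspase 3/7 activity by luminescence, each scaled to mock wells per plate, duplicates averaged, then robust z-scored over all plates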
Scale: viability robust z-score: higher = more viable cells than screen typical; caspase robust z-score: higher = more caspase 3/7 activity than screen typical
Rule for the call: 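Hits are knock-downs in viability class RV1/RV2 or caspase class CA1/CA2, excluding ones that killed cells in the no-drug cell-count arm; hits then retested with single siRNAs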
The whole screen tested about 18,000 reagents; this is a random part of them. In the full data, 450 (2.5%) got an active call. 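Single biological run; no consistent viability z cut-off exists, so the class columns, not z-scores, define the calls.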 Unmarked entries are inactive.

{"Target gene": "LYPLA1", "viability hit class": "no change", "caspase hit class": "no change", "viability robust z-score": -0.61, "caspase robust z-score": 0.46}
{"Target gene": "CHMP7", "viability hit class": "no change", "caspase hit class": "no change", "viability robust z-score": -1.58, "caspase robust z-score": -0.06}
{"Target gene": "ZNF547", "viability hit class": "no change (active)", "caspase hit class": "CA1 (caspase activation)", "viability robust z-score": -2.46, "caspase robust z-score": 8.8}
{"Target gene": "ATP1B4", "viability hit class": "no change", "caspase hit class": "no change", "viability robust z-score": -0.05, "caspase robust z-score": 1.29}
{"Target gene": "FUT7", "viability hit class": "no change", "caspase hit class": "no change", "viability robust z-score": -0.8, "caspase robust z-score": -0.16}
{"Target gene": "H3C1", "viability hit class": "no change", "caspase hit class": "no change", "viability robust z-score": 0.54, "caspase robust z-score": -0.9}
{"Target gene": "LHX5", "viability hit class": "no change", "caspase hit class": "no change", "viability robust z-score": -0.04, "caspase robust z-score": 0.54}
{"Target gene": "ZKSCAN8", "viability hit class": "no change", "caspase hit class": "no change", "viability robust z-score": -0.42, "caspase robust z-score": 1.34}
{"Target gene": "RAB5C", "viability hit class": "no change", "caspase hit class": "no change", "viability robust z-score": 0.22, "caspase robust z-score": -0.32}
{"Target gene": "ST6GALNAC1", "viability hit class": "no change", "caspase hit class": "no change", "viability robust z-score": -0.42, "caspase robust z-score": 1.81}
{"Target gene": "SMARCC1", "viability hit class": "no change", "caspase hit class": "no change", "viability robust z-score": 0.72, "caspase robust z-score": -0.29}
{"Target gene": "OR10AG1", "viability hit class": "no change", "caspase hit class": "no change", "viability robust z-score": 1.07, "caspase robust z-score": 1.79}
{"Target gene": "ACAT1", "viability hit class": "no change", "caspase hit class": "no change", "viability robust z-score": 0.56, "caspase robust z-score": -1.01}
{"Target gene": "HAGH", "viability hit class": "no change", "caspase hit class": "no change", "viability robust z-score": 0.14, "caspase robust z-score": 1.75}
{"Target gene": "PIP5K1B", "viability hit class": "no change", "caspase hit class": "no change", "viability robust z-score": 0.23, "caspase robust z-score": -0.19}
{"Target gene": "SLC25A26", "viability hit class": "no change", "caspase hit class": "no change", "viability robust z-score": -1.62, "caspase robust z-score": 2.21}
{"Target gene": "PKIA", "viability hit class": "no change", "caspase hit class": "no change", "viability robust z-score": -0.85, "caspase robust z-score": -1.04}
{"Target gene": "KBTBD8", "viability hit class": "no change", "caspase hit class": "no change", "viability robust z-score": 1.38, "caspase robust z-score": -1.18}
{"Target gene": "KIR3DX1", "viability hit class": "no change", "caspase hit class": "no change", "viability robust z-score": -1.08, "caspase robust z-score": -0.32}
{"Target gene": "IL1R2", "viability hit class": "no change", "caspase hit class": "no change", "viability robust z-score": 1.49, "caspase robust z-score": -0.15}
{"Target gene": "SIAE", "viability hit class": "no change", "caspase hit class": "no change", "viability robust z-score": 0.45, "caspase robust z-score": 0.12}
{"Target gene": "IFIT2", "viability hit class": "no change", "caspase hit class": "no change", "viability robust z-score": 0.46, "caspase robust z-score": 0.62}
{"Target gene": "HOMER2", "viability hit class": "no change", "caspase hit class": "no change", "viability robust z-score": 1.25, "caspase robust z-score": -0.11}
{"Target gene": "ZNF225", "viability hit class": "no change", "caspase hit class": "no change", "viability robust z-score": 0.36, "caspase robust z-score": 1.27}
{"Target gene": "PRDX3", "viability hit class": "no change", "caspase hit class": "no change", "viability robust z-score": -0.73, "caspase robust z-score": -1.03}
{"Target gene": "RNF113B", "viability hit class": "no change", "caspase hit class": "no change", "viability robust z-score": -2.04, "caspase robust z-score": 4.44}
{"Target gene": "LRRTM4", "viability hit class": "no change", "caspase hit class": "no change", "viability robust z-score": -0.13, "caspase robust z-score": 0.64}

Targets above whose target name begins with A or a (2):
{"Target gene": "ATP1B4", "viability hit class": "no change", "caspase hit class": "no change", "viability robust z-score": -0.05, "caspase robust z-score": 1.29}
{"Target gene": "ACAT1", "viability hit class": "no change", "caspase hit class": "no change", "viability robust z-score": 0.56, "caspase robust z-score": -1.01}
